Values from PubChem BioAssay AID743454 (Peter MacCallum Cancer Centre, 2014)
Assay: 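Knock-downs lowering viability or raising caspase 3/7 activity in vorinostat-treated resistant cells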 (primary screen). Cell system: human HCT116-VR colon cancer cells, selected for vorinostat resistance. Reagents: siRNA pool against human genes, 40 nM siRNA pool. Duration: vorinostat for 24 h, read-out about 72 h after transfection. Challenge: vorinostat at 2.5 µM final. Detection: 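Cell viability by CellTiter-Fluor and caspase 3/7 activity by luminescence, each scaled to mock wells per plate, duplicates averaged, then robust z-scored over all plates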. Scale: viability robust z-score: higher = more viable cells than screen typical; caspase robust z-score: higher = more caspase 3/7 activity than screen typical. Active means: 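a knock-down is a hit when classed RV1 or RV2 for lowered viability, or CA1 or CA2 for caspase activation; those lethal without drug were dropped; hits were retested singly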.
The deposit covers about 18,000 reagents; this is a random part of them. Of all reagents, 450 (2.5%) were called active. 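Single biological run; no consistent viability z cut-off exists, so the class columns, not z-scores, define the calls.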 Unmarked entries are inactive. No sequences are given here.

| gene knocked down | viability hit class | caspase hit class | viability robust z-score | caspase robust z-score |
| --- | --- | --- | --- | --- |
| LHFPL7 (LHFPL tetraspan subfamily member 7) | no change | no change | -0.14 | -1.31 |
| ST6GAL2 (ST6 beta-galactoside alpha-2,6-sialyltransferase 2) | no change | no change | 0.45 | -0.35 |
| C18orf32 (chromosome 18 open reading frame 32) | no change | no change | 1.42 | 1.94 |
| CCL26 (C-C motif chemokine ligand 26) | no change | no change | -1.63 | 1.75 |
| FZD2 (frizzled class receptor 2) | no change | no change | -0.43 | 4.05 |
| GFRA3 (GDNF family receptor alpha 3) | no change | no change | -1.38 | -0.88 |
| STON1-GTF2A1L (STON1-GTF2A1L readthrough) | no change | no change | 0.62 | 1.52 |
| KIR3DP1 | no change | no change | -0.74 | -0.37 |
| HS6ST1 (heparan sulfate 6-O-sulfotransferase 1) | no change | no change | -0.94 | 3.2 |
| MAD1L1 (mitotic arrest deficient 1 like 1) | no change | no change | -0.16 | -1.01 |
| NAT8 (N-acetyltransferase 8 (putative)) | no change (active) | CA1 (caspase activation) | -0.24 | 5.38 |
| TTC1 (tetratricopeptide repeat domain 1) | no change | no change | 0.3 | 2.06 |
| MRPL53 (mitochondrial ribosomal protein L53) | no change | no change | 0.34 | 1.02 |
| KCNIP2 (potassium voltage-gated channel interacting protein 2) | no change | no change | 0.08 | 1 |
| AMY1C (amylase alpha 1C) | no change | no change | 0.92 | -0.56 |
| CLEC4F (C-type lectin domain family 4 member F) | no change | no change | -0.66 | -1.19 |
| TPGS1 (tubulin polyglutamylase complex subunit 1) | no change | no change | -1.71 | 1.27 |
| RBL1 (RB transcriptional corepressor like 1) | no change | no change | -0.24 | -0.62 |
| CAMSAP3 | no change | no change | 0.19 | -0.46 |
| ALS2 (alsin Rho guanine nucleotide exchange factor ALS2) | no change | no change | -0.04 | -0.68 |
| ASB16-AS1 (ASB16 antisense RNA 1) | no change | no change | -0.81 | -0.84 |
| FLOT2 (flotillin 2) | no change | no change | 0.82 | -0.41 |
| MAFF (MAF bZIP transcription factor F) | no change | no change | 1.49 | -0.06 |
| SLA (Src like adaptor) | no change | no change | -0.74 | -0.14 |
| PDE1B (phosphodiesterase 1B) | no change | no change | -1.21 | 0.1 |
| DEFB104B (defensin beta 104B) | no change | no change | -1.56 | -0.72 |
| ACTRT2 (actin related protein T2) | no change | no change | 0.54 | 1.91 |
| COL7A1 (collagen type VII alpha 1 chain) | no change | no change | 1.29 | -0.02 |
| MRPL4 (mitochondrial ribosomal protein L4) | no change | no change | 0.8 | 0.82 |
| GABRA4 (gamma-aminobutyric acid type A receptor subunit alpha4) | no change | no change | -0.38 | 3.4 |
| MCTP2 (multiple C2 and transmembrane domain containing 2) | no change | no change | 0.24 | 0.96 |
| ADCYAP1 (adenylate cyclase activating polypeptide 1) | no change | no change | 0.04 | 0 |
| S100A8 (S100 calcium binding protein A8) | no change | no change | -0.48 | 0.02 |
| ZNF358 (zinc finger protein 358) | no change | no change | -0.16 | 0.92 |
| RDH5 (retinol dehydrogenase 5) | no change | no change | 0.31 | 0.06 |
| TMED7 (transmembrane p24 trafficking protein 7) | no change | no change | -0.3 | -0.9 |
| MCC (MCC regulator of Wnt signaling pathway) | no change | no change | 0.11 | 2.74 |
| KIF15 (kinesin family member 15) | no change | no change | -0.48 | 0.72 |
| AKAP12 (A-kinase anchoring protein 12) | no change | no change | -0.24 | -0.28 |

Look-ups from the entries so far.
MCTP2 (multiple C2 and transmembrane domain containing 2), caspase robust z-score: 0.96
For “viability hit class”, KIF15 (kinesin family member 15) shows no change
For “viability hit class”, TTC1 (tetratricopeptide repeat domain 1) is entered as no change
Result for LHFPL7 (LHFPL tetraspan subfamily member 7) in “viability hit class”: no change
S100A8 (S100 calcium binding protein A8), caspase robust z-score = 0.02
Entry of MAD1L1 (mitotic arrest deficient 1 like 1) in “viability robust z-score”: -0.16
